Values from PubChem BioAssay AID652272 (Drosophila RNAi Screening Center, 2013)

Purpose: 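Genome-wide knock-down search for components of Hedgehog signalling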 (primary screen)
Cell system: Drosophila clone 8 (Cl8) cells
Reagent: long dsRNA against Drosophila genes
Read-out: 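Plate reader light from a firefly reporter under a ptc promoter fragment that responds to Hedgehog, with Renilla light as transfection reference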
Direction: firefly Hh reporter signal: higher = more ptc reporter light; Renilla reference signal: higher = more Renilla control light
Active means: 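Called a hit if the two-replicate mean z-score lies below -2 or above +3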
Calls: active = hit: reporter lowered or raised; inactive = not a hit
In all, the deposit lists about 21,000 reagents; shown is a random part of those with a known target gene and a result. Over the whole deposit, 503 (2.4%) are marked active. 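Raw plate light values, not normalised; calls rest on replicate z-scores that were not deposited; hits include reporter decreases as well as increases.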 Not stated in the record: the amount of reagent, the time to read-out.

Target gene	DRSC id	firefly Hh reporter signal, replicate 1	firefly Hh reporter signal, replicate 2	firefly Hh reporter signal, replicate 3	Renilla reference signal, replicate 1	Renilla reference signal, replicate 2	call
CG12590 (GeneID 40618)	DRSC12216	76629	1.13e5		2673	3317	inactive
CG2962 (GeneID 31952)	DRSC18247	1.02e5	96208		2083	2486	inactive
mex1 (GeneID 39677)	DRSC11368	2.00e5			8209	5824	inactive
nht (GeneID 34902)	DRSC01976	1.31e5	5.23e5	1.03e5	3072	29430	inactive
NSD (GeneID 43351)	DRSC15691	92436	1.35e5		3574	3981	inactive
Vav (GeneID 32920)	DRSC20384	93444	2.98e5		2628	12496	inactive
CG32301 (GeneID 38285)	DRSC08613	82758	33060		2505	2693	inactive
CG43689 (GeneID 31353)	DRSC18046	1.26e5	2.50e5		3765	8265	inactive
CG43689 (GeneID 31353)	DRSC18383	36211	30899		1833	1856	inactive
CG8892 (GeneID 33719)	DRSC03121	76722	82437		3873	3353	inactive
Edc3 (GeneID 39957)	DRSC10620	1.28e5	63299		5420	2978	inactive
Hsc70-4 (GeneID 41840)	DRSC16711	51536	43690		2264	1588	inactive
shot (GeneID 36542)	DRSC05459	51568	1.06e5		4824	7316	inactive
shot (GeneID 36542)	DRSC05460	83041	1.49e5		7152	7926	inactive
shot (GeneID 36542)	DRSC07682	1.06e5	78197		4436	3337	inactive
CG8112 (GeneID 41033)	DRSC16377	73320	1.40e5		2939	18512	inactive
Atg1 (GeneID 39454)	DRSC09809	82403	61399		3329	2572	inactive
Atg1 (GeneID 39454)	DRSC09810	65308	71616	49805	8224	4173	inactive
Ptp52F (GeneID 36790)	DRSC06717	58405	32683		1456	2184	inactive
RagC-D (GeneID 35793)	DRSC07239	75683	83697		2521	3306	inactive
Argk2 (GeneID 39040)	DRSC10483	41552	55952		89	4528	inactive
CG16894 (GeneID 37280)	DRSC06634	1.57e5	1.02e6	81169	4453	57462	inactive
CG14316 (GeneID 42163)	DRSC14795	5.14e5	66236		26452	1881	inactive
ssp3 (GeneID 35149)	DRSC02669	63842	61641		1621	4684	inactive
ssp3 (GeneID 35149)	DRSC02670	87036	37672		2070	3915	inactive
CG32544 (GeneID 318082)	DRSC20033	70928	1.68e5		1312	7506	inactive
sphinx1 (GeneID 318005)	DRSC10993	27808	66838		2946	4880	inactive
rumpel (GeneID 31674)	DRSC18436	70290	1.72e5		2240	6071	inactive
TrpRS (GeneID 45399)	DRSC14097	84123	1.33e5		1243	3672	inactive
Syx8 (GeneID 39847)	DRSC10402	5.66e5	1.83e5	82386	7432	2212	inactive
dmrt11E (GeneID 32291)	DRSC19715	1.26e5	3.32e5		2872	11121	inactive
Ziz (GeneID 34030)	DRSC02506	1.23e5	69444		2963	6245	inactive
Ziz (GeneID 34030)	DRSC02976	1.03e5	48648		3105	4518	inactive
Aduk (GeneID 41112)	DRSC16451	94308	1.01e5		3021	2474	inactive
LKRSDH (GeneID 34064)	DRSC03015	93792	72570		3200	2941	inactive
CG14195 (GeneID 32911)	DRSC19550	96269	1.97e5		2982	6554	inactive
VhaSFD (GeneID 34997)	DRSC03471	59628	42416		2660	2114	inactive
eIF2Bbeta (GeneID 31256)	DRSC18465	69066	2.06e5		1383	8166	inactive
slou (GeneID 42547)	DRSC17058	7.55e5	1.35e5		43611	2304	inactive
Amun (GeneID 32123)	DRSC19847	52512	1.33e5		1235	6262	inactive
Pu (GeneID 37415)	DRSC04645	1.00e5	66949		3777	2684	inactive
bora (GeneID 40031)	DRSC10744	1.18e5	51707		4544	1859	inactive
CG10734 (GeneID 36787)	DRSC05998	83248	37298		2330	3140	inactive
Df31 (GeneID 35418)	DRSC03738	1.29e5	7.13e5	1.24e5	4234	42694	inactive
Zn72D (GeneID 39764)	DRSC11318	70098	43872		2160	1717	inactive
CG13251 (GeneID 40286)	DRSC11699	99456	1.12e5		3216	3234	inactive
myd (GeneID 42303)	DRSC14762	50080	49224		2873	2327	inactive
myd (GeneID 42303)	DRSC15512	5.59e5	68096		29469	1674	inactive
sced (GeneID 35564)	DRSC04990	67995	60164		2832	2728	inactive
Rab3-GEF (GeneID 32442)	DRSC19954	84848	2.47e5		3338	9507	inactive
Rab3-GEF (GeneID 32442)	DRSC19955	80524	2.32e5		3116	9808	inactive
Rab3-GEF (GeneID 32442)	DRSC19956	49360	1.15e5		2016	4621	inactive
sip2 (GeneID 33979)	DRSC03154	1.02e5	54085		3080	5242	inactive
CG8236 (GeneID 41047)	DRSC16399	1.12e5	1.25e5		3283	6450	inactive
CG17030 (GeneID 38591)	DRSC08503	50781	69403		5338	4631	inactive
CG15882 (GeneID 32895)	DRSC19735	73664	1.95e5		1232	7794	inactive
CG15696 (GeneID 42469)	DRSC15118	5.01e5	97046		25178	2133	inactive
